The values below come from the supplement of paper PMC3334620.

Over roughly 33,000 sequences, “E-score (-0.5 to 0.5)” has its median near -0.016; the highest 2% begin near 0.3. This is one part of the list.

The assay has as its target T1, Yer184c (UniProt P39961).
T1 sequence: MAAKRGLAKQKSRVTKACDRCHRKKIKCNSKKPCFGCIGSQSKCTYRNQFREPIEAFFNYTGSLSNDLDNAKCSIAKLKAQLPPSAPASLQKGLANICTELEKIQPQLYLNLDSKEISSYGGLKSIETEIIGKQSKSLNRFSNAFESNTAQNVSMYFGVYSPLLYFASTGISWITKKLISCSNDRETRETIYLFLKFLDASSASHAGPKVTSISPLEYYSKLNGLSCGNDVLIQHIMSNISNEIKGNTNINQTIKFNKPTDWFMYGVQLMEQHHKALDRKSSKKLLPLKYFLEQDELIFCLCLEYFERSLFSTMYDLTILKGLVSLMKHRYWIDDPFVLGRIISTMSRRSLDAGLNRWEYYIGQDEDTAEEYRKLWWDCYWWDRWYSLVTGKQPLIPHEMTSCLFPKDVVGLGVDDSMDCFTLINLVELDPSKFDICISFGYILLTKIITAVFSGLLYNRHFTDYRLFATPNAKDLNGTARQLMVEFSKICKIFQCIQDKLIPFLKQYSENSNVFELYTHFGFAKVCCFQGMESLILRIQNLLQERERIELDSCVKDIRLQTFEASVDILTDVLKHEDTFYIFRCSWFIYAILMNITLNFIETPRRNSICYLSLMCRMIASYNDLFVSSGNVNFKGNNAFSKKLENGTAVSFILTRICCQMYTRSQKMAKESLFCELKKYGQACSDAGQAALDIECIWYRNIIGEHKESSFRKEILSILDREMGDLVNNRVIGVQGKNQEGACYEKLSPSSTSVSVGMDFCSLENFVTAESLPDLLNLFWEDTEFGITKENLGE
Nature of the assay: PBM E-score (8-mer binding enrichment) (E-score (-0.5 to 0.5)); higher = stronger / more preferred TF binding. The following applies: protein concentration: 100 nM; construct: GST-full length. In short, it runs like this:
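Using PURExpress in vitro transcription/translation, GST-tagged yeast transcription factors were made in full-length or DNA-binding-domain form. These were applied at about 100-200 nM to double-stranded universal all-10-mer Agilent arrays, and bound protein was detected with fluorescent anti-GST. Scans were normalised with masliner before the Universal PBM Analysis Suite assigned E-scores to ungapped eight-base words pooled with their reverse complements.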
As for CGGAAGAC, the “PBM E-score” value was determined as 0.271.

With CTTTAGCA, the “PBM E-score” value is -0.0568.

For GCCTTAAA, the “PBM E-score” value stood at 0.201.

AAGTTGGA: the “PBM E-score” value was determined as 0.0404.

As to ACATGTGG, the “PBM E-score” value was -0.0584.

Take CGTTAGGA: the “PBM E-score” value was -0.0109.

Consider CGGTTTAA, for which the “PBM E-score” value turned out to be 0.151.

ACGCCCAT: the “PBM E-score” value was -0.096.

As to CACTATTA, the “PBM E-score” value was 0.0652.

Turning to CATCAGAC, the “PBM E-score” value came to 0.0314.

In the case of CGATATTA, the “PBM E-score” value worked out at 0.343.

As to ACCCATGG, the “PBM E-score” value was -0.171.

For CCATGAGG, the “PBM E-score” value is -0.14.

As for GCAGAAAA, the “PBM E-score” value is 0.132.

In the case of CTTTCATC, the “PBM E-score” value is -0.13.

For the sequence TCATACGA, the “PBM E-score” value is 0.0208.

Turning to CGCGGCCC, the “PBM E-score” value is 0.0857.

Turning to GAGCTGAC, the “PBM E-score” value was found to be 0.166.

Take CAGATTCA: the “PBM E-score” value is -0.0469.

As to ACCCTTCC, the “PBM E-score” value is -0.0895.

On to GTGGTAAA, for which the “PBM E-score” value amounted to 0.0121.

In the case of GATTCTGC, the “PBM E-score” value is 0.188.

With GCGATCGA, the “PBM E-score” value is 0.044.

Regarding ATCAAACG, the “PBM E-score” value was 0.0842.

With ACTTCGGC, the “PBM E-score” value was determined as 0.269.

As to ATTGAAAA, the “PBM E-score” value is 0.192.

For the sequence ATCCCGAT, the “PBM E-score” value stood at 0.091.

Turning to GCTAATTA, the “PBM E-score” value was 0.0935.

For the sequence ATTACTGC, the “PBM E-score” value was determined as 0.0852.

GTAGAGAA: the “PBM E-score” value came to 0.00922.

Consider AGCTCCCA, for which the “PBM E-score” value is -0.135.

In the case of ACCGTGCA, the “PBM E-score” value is -0.0733.

In the case of CCAACTAA, the “PBM E-score” value is -0.0249.

Take CCAGAATA: the “PBM E-score” value came to 0.16.

Consider AAAAACTC, for which the “PBM E-score” value was found to be 0.124.

Take AACATCTA: the “PBM E-score” value is -0.0976.

For CCACTTCA, the “PBM E-score” value was -0.0618.

In the case of CACGGTCC, the “PBM E-score” value was -0.123.

Turning to ACCAACTC, the “PBM E-score” value is -0.0146.

For ACGCCAGT, the “PBM E-score” value was -0.142.

As for AGTCTAAA, the “PBM E-score” value was -0.0613.

CTTATACC: the “PBM E-score” value turned out to be 0.0173.

For the sequence CCAGAAAC, the “PBM E-score” value was found to be 0.103.

For the sequence GGGGCCCC, the “PBM E-score” value was 0.0115.

As for CTTCCGAC, the “PBM E-score” value was determined as 0.173.

With GTTTCGTA, the “PBM E-score” value is 0.274.

Consider CTTGTGGC, for which the “PBM E-score” value is -0.199.

As to ATTATAAT, the “PBM E-score” value was found to be 0.255.

Take CACTTAAC: the “PBM E-score” value is -0.143.

On to ACCTCCGT, for which the “PBM E-score” value was 0.107.

For GTACGTTA, the “PBM E-score” value worked out at 0.0704.

For ACAATCAG, the “PBM E-score” value came out at 0.0638.

Regarding GGGTCTTA, the “PBM E-score” value was -0.186.

Turning to CACGGCAC, the “PBM E-score” value came to 0.124.

CGGGGCGA: the “PBM E-score” value came out at 0.0911.

Consider AGTACGAT, for which the “PBM E-score” value is -0.014.

In the case of CAGTAGGC, the “PBM E-score” value was -0.075.

Take AACCCAAG: the “PBM E-score” value was -0.107.

In the case of CCGCGCGA, the “PBM E-score” value was determined as 0.183.

As for GTTATATA, the “PBM E-score” value came out at 0.156.

Turning to TGTACGAA, the “PBM E-score” value turned out to be 0.0407.

Turning to CTCGAGAC, the “PBM E-score” value came out at 0.0461.

ATCAACTC: the “PBM E-score” value came out at 0.0389.

As to AAGTTGCA, the “PBM E-score” value was -0.0771.

On to AAGCGGCA, for which the “PBM E-score” value was found to be 0.201.

Regarding GAAGCAAA, the “PBM E-score” value is -0.0663.

For CACGTCGC, the “PBM E-score” value was -0.154.

Consider GCAGGAGC, for which the “PBM E-score” value was -0.282.

As to ATCCACAA, the “PBM E-score” value is -0.0255.

As to GAGATATA, the “PBM E-score” value came out at 0.166.

Take ATTCCTTC: the “PBM E-score” value came out at 0.0508.

For the sequence CTATCGGC, the “PBM E-score” value is 0.0932.

With CGTTGTGC, the “PBM E-score” value is -0.0134.

With AAGGCGAC, the “PBM E-score” value was -0.169.

In the case of ACGGCAGT, the “PBM E-score” value was -0.00033.

With CAGCTGAC, the “PBM E-score” value was -0.035.

In the case of CACACTCG, the “PBM E-score” value came out at 0.129.

For CCGCCCGC, the “PBM E-score” value worked out at 0.0679.

Turning to ATTATTGC, the “PBM E-score” value stood at 0.211.

On to CCTTGTAA, for which the “PBM E-score” value came to 0.0106.

As for AAGCCTCG, the “PBM E-score” value was -0.124.

Take GATCAGAC: the “PBM E-score” value is -0.0162.

As for TAGATTAA, the “PBM E-score” value turned out to be 0.183.

On to CCCCTGTA, for which the “PBM E-score” value was -0.191.

As for AACAATCC, the “PBM E-score” value was 0.194.

CAATCAAA: the “PBM E-score” value worked out at 0.00295.
